Measurements from paper PMC7374170, “TRIB3-EGFR interaction promotes lung cancer progression and defines a therapeutic target” (Nature Communications, 2020).
No constants are given. Whether binding was seen depends on the method and setting. Binding seen in cells or lysates may run through a third protein. Some binding calls cover weakened binding; strength is not graded here.

Protein sequences, listed by entry. Tags and fused reporters are not part of them.
UniProt Q96RU7: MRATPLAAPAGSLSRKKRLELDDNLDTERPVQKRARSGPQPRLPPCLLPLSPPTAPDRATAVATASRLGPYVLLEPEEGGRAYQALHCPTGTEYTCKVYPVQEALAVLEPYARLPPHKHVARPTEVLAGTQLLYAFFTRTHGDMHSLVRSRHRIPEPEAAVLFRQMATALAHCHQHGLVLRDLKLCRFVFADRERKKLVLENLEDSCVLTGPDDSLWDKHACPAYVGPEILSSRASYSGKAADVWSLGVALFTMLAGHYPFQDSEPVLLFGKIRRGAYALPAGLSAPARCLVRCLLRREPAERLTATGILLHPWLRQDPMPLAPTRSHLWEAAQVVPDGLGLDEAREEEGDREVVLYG

Tests used:
[1] = target: HA-tagged TRIB3 (UniProt Q96RU7); assay: co-IP; mapping with deletion mutants (Fig. 3g-i); cells and precipitating antibody not told
[2] = target: protein kinase C alpha (PKCα), endogenous (human (endogenous in A549)) (UniProt P17252); assay: co-IP; protein extracts from A549 cells, IP with anti-TRIB3, anti-EGFR or anti-PKCα Abs individually, detected with indicated Abs
[3] = target: TRIB3, endogenous (human (endogenous in A549)) (UniProt Q96RU7); assay: as above
[4] = target: epidermal growth factor receptor (EGFR), endogenous (human (endogenous in A549)) (UniProt P00533); assay: as above

In the case of “PKCα, ectopically expressed (from UniProt P17252 1-672) (enzyme)”, the binding [1] is reported as “binds”.
“epidermal growth factor receptor (EGFR), endogenous (from UniProt P00533 25-1210)” was tested, and the binding [2] was “binds”.
With “protein kinase C alpha (PKCα), endogenous (from UniProt P17252 1-672) (enzyme)” the binding [3] was “binds” and the binding [4] was “binds”.
